In the supplement of paper PMC10849652:
This is one part of the list.

Sequences of proteins named here, by UniProt entry; tags and fusion partners are left off. A change or cut given only in a name is not applied to a line headed by its entry.
UniProt Q9ULX9: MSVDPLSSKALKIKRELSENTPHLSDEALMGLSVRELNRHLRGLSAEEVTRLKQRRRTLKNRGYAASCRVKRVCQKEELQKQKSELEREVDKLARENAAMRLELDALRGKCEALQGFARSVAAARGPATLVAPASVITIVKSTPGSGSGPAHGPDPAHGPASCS
UniProt Q13164: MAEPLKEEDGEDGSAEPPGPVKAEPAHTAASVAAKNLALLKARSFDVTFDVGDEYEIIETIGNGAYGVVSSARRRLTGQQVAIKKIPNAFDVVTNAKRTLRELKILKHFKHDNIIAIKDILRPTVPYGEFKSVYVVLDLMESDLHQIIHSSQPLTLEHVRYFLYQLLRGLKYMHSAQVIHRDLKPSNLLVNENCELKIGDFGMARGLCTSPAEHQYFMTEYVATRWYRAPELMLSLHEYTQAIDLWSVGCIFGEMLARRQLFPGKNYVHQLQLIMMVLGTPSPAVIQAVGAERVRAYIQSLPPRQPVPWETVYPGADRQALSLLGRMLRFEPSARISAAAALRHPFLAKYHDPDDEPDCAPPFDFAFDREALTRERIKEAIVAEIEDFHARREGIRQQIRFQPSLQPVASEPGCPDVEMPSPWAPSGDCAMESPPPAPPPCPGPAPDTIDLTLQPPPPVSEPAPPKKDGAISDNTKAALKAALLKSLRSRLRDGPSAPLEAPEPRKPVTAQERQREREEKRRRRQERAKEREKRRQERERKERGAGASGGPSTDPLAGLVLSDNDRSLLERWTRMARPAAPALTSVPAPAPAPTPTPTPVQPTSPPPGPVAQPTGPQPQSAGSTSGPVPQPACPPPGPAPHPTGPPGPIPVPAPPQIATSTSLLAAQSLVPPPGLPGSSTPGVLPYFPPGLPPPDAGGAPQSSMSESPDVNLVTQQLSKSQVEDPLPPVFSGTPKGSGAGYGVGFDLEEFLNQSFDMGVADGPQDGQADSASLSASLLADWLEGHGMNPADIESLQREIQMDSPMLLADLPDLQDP
UniProt P43358: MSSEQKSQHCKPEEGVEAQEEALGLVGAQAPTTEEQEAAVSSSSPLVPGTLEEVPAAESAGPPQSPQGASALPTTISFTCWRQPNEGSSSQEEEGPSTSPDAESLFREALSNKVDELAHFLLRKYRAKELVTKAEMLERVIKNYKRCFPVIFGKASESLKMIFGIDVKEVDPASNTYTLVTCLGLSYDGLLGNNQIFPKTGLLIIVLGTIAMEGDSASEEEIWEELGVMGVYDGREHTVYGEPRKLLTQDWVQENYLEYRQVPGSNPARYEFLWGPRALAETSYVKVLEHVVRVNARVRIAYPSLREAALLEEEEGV
UniProt O95819: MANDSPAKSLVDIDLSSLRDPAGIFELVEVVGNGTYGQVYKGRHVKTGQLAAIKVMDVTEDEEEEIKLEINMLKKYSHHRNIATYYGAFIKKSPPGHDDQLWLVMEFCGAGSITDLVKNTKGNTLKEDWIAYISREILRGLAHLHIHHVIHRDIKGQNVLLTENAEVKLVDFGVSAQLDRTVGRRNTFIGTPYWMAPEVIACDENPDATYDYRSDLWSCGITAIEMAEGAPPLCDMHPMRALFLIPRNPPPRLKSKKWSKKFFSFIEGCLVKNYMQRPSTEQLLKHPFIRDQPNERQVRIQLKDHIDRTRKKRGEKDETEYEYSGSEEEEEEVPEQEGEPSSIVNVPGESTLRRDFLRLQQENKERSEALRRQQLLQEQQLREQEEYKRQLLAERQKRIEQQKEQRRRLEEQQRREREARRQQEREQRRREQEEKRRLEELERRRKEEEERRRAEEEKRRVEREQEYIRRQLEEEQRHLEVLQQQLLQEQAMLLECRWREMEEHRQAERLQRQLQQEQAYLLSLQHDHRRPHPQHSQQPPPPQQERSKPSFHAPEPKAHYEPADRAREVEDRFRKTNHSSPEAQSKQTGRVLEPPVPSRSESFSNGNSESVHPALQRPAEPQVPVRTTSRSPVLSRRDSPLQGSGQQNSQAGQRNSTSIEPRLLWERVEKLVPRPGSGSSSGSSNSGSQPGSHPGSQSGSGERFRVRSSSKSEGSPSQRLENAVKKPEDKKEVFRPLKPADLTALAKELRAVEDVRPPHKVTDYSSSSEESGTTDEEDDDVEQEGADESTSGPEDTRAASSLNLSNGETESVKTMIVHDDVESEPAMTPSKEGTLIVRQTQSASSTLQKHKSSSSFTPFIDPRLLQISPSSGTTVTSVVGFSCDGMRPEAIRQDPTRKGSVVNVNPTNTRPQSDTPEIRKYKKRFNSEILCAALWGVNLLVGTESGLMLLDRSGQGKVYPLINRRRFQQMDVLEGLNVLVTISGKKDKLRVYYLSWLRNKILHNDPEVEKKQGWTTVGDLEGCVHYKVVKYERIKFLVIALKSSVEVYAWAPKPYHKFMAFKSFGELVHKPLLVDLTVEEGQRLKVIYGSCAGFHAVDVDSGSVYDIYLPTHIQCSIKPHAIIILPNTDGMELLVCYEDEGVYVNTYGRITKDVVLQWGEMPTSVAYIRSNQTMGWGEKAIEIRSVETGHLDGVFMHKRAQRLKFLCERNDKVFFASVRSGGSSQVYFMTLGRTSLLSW
UniProt Q9NQG1: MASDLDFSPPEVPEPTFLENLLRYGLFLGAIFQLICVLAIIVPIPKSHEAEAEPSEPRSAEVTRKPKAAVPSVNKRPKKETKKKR
UniProt Q6P0Q8: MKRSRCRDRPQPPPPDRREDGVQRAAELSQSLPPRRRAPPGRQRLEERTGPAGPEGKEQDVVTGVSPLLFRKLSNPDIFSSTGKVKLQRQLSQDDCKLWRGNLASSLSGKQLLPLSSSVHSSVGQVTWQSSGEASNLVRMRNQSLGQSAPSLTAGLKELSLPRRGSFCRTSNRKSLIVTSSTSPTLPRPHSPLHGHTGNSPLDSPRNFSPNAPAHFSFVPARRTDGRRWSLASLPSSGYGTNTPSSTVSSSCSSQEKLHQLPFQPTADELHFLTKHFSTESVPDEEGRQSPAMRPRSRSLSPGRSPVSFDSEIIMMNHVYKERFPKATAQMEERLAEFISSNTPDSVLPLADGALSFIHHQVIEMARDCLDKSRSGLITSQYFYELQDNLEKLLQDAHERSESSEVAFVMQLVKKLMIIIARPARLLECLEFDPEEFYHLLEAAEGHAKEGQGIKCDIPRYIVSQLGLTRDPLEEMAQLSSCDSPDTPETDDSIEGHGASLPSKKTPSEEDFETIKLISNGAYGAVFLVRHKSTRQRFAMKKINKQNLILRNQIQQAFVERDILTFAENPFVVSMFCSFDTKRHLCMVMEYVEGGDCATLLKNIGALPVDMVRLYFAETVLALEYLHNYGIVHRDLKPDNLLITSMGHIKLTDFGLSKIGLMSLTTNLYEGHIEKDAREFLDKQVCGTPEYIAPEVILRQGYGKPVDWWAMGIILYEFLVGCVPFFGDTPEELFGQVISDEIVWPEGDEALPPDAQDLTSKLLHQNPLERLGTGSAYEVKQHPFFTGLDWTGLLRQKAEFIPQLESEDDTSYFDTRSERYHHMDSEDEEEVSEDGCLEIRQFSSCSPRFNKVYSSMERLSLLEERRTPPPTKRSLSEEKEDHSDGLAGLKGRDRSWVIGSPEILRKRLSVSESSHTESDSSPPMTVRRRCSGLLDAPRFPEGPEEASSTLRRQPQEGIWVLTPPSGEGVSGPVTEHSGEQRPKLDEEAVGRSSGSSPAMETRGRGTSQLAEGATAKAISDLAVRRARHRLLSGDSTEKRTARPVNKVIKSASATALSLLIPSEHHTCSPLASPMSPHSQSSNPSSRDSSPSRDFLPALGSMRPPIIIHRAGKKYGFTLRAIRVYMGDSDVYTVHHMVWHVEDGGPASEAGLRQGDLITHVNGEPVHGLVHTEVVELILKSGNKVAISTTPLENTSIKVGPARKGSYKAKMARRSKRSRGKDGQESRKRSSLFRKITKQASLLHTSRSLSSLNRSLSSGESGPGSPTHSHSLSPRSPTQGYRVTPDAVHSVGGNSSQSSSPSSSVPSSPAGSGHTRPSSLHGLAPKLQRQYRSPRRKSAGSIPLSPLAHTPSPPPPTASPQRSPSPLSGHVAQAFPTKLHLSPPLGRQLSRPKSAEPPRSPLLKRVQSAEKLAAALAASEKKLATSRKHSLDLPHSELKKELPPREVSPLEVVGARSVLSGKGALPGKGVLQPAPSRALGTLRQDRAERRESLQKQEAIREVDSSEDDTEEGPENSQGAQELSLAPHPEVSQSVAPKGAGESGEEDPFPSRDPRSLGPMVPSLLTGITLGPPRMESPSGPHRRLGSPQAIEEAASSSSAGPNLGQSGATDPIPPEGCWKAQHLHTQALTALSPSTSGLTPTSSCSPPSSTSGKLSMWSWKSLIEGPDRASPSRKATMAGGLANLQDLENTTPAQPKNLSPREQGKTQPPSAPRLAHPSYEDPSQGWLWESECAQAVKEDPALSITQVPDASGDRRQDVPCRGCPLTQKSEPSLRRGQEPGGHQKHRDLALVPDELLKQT
UniProt P12980: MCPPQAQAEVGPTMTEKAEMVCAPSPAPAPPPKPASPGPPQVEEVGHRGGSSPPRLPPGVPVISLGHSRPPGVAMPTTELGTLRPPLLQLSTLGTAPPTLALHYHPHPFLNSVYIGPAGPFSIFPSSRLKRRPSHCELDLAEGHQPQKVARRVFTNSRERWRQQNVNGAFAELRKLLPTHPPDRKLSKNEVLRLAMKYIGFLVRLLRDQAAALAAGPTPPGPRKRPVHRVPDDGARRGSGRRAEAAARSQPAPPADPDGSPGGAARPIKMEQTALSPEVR
UniProt P43357, whole entry, looked up: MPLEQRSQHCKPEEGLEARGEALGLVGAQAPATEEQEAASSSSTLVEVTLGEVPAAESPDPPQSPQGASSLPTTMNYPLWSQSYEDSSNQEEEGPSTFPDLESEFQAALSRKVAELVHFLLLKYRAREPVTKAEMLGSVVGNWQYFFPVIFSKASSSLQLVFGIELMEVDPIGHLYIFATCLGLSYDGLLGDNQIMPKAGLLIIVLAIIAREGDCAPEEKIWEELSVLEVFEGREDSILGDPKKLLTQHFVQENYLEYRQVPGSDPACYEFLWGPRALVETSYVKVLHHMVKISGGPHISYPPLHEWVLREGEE
UniProt P43360, whole entry, looked up: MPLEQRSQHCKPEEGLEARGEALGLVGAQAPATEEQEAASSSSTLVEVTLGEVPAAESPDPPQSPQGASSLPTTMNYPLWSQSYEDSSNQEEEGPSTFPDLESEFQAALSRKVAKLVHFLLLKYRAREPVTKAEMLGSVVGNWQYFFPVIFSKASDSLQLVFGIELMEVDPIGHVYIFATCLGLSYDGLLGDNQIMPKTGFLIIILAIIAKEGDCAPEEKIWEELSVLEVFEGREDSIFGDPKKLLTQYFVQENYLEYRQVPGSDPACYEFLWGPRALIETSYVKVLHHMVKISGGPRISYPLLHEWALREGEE
UniProt P53778: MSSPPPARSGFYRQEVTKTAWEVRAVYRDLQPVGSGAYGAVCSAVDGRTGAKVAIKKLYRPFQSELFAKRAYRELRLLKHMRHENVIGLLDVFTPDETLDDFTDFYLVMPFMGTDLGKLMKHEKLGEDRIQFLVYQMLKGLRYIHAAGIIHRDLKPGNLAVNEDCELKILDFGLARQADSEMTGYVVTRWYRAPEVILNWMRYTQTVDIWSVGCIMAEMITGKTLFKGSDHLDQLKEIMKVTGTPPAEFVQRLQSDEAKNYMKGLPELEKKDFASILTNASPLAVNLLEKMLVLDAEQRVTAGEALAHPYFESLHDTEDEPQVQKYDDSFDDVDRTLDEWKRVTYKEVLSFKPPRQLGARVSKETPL
UniProt Q96LZ2: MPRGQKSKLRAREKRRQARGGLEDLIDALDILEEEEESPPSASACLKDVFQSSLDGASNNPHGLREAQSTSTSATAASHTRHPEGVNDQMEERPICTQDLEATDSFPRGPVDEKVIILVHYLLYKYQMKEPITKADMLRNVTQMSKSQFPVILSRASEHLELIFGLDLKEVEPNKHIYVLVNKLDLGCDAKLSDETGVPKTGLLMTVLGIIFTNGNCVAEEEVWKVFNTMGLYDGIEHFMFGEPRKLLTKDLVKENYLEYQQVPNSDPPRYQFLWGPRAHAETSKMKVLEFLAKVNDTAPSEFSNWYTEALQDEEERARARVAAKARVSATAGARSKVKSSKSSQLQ

Experiments:
Assay in all cases: log2 fold change, soluble protein after heating vs DMSO (PISA); higher = thermal stabilisation; K562 lysate, 10 uM; active = over 0.2 and 3.5 SD of the protein, either way, in both replicates (recomputed)
lapatinib = compound: CS(=O)(=O)CCNCc1ccc(-c2ccc3ncnc(Nc4ccc(OCc5cccc(F)c5)c(Cl)c4)c3c2)o1 [lapatinib]
Method in brief: (§1)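 Quantification was by TMTpro 16plex LC-MS/MS with equalised channel sums, applied to the supernatant after 21,000xg for 90 min. Samples were crude K562 extract at 1 mg/mL protein in PBS pH 7.4 with 1 mM MgCl2, treated with 10 μM compound for 30 min, heated for 3 min across 48°C-58°C, pooled and brought to 0.5% NP-40 at 4°C. Values are log-two fold changes in thermal stability relative to solvent controls, from duplicates.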

crizotinib = compound: C[C@@H](Oc1cc(-c2cnn(C3CCNCC3)c2)cnc1N)c1c(Cl)ccc(F)c1Cl [crizotinib]
Method in brief: as §1

[1] = compound: C[C@H](C1=CC=C(C=C1)C(=O)NC2=C3C=CNC3=NC=C2)N
Method in brief: as §1

gandotinib = compound: Cc1cc(Nc2cc(CN3CCOCC3)c3nc(C)c(Cc4ccc(Cl)cc4F)n3n2)n[nH]1 [gandotinib]
Method in brief: as §1

tozasertib = compound: Cc1cc(Nc2cc(N3CCN(C)CC3)nc(Sc3ccc(NC(=O)C4CC4)cc3)n2)n[nH]1 [tozasertib]
Method in brief: as §1

doramapimod = compound: Cc1ccc(-n2nc(C(C)(C)C)cc2NC(=O)Nc2ccc(OCCN3CCOCC3)c3ccccc23)cc1 [doramapimod]
Method in brief: as §1

[2] = compound: Cc1cccc(CC(=O)N2CCc3c2ccc(-c2cn(C)c4ncnc(N)c24)c3F)n1
Method in brief: as §1

quisinostat = compound: Cn1cc(CNCC2CCN(c3ncc(C(=O)NO)cn3)CC2)c2ccccc21 [quisinostat]
Method in brief: as §1

[3] = compound: NC(=O)Nc1cc(-c2cccc(F)c2)sc1C(=O)N[C@H]1CCCNC1
Method in brief: as §1

[4] = compound: NC(=O)c1cnc(N[C@@H]2CCCC[C@@H]2N)nc1Nc1cccc(-n2nccn2)c1
Method in brief: as §1

[5] = compound: NC1(c2ccc(-c3nc4ccn5c(=O)[nH]nc5c4cc3-c3ccccc3)cc2)CCC1
Method in brief: as §1

pictilisib = compound: CS(=O)(=O)N1CCN(Cc2cc3nc(-c4cccc5[nH]ncc45)nc(N4CCOCC4)c3s2)CC1 [pictilisib]
Method in brief: as §1

bafetinib = compound: Cc1ccc(NC(=O)c2ccc(CN3CC[C@H](N(C)C)C3)c(C(F)(F)F)c2)cc1Nc1nccc(-c2cncnc2)n1 [bafetinib]
Method in brief: as §1

nilotinib = compound: Cc1cn(-c2cc(NC(=O)c3ccc(C)c(Nc4nccc(-c5cccnc5)n4)c3)cc(C(F)(F)F)c2)cn1 [nilotinib]
Method in brief: as §1

[6] = compound: Cc1nc(Nc2n[nH]c3c2CN(C(=O)N[C@H](CN(C)C)c2ccccc2)C3(C)C)c2sccc2n1
Method in brief: as §1

[7] = compound: Cc1ncc(-c2ccnc(Nc3ccc(S(C)(=O)=O)cc3)n2)n1C(C)C
Method in brief: as §1

tipifarnib = compound: Cn1cncc1[C@@](N)(c1ccc(Cl)cc1)c1ccc2c(c1)c(-c1cccc(Cl)c1)cc(=O)n2C [tipifarnib]
Method in brief: as §1

duvelisib = compound: C[C@H](Nc1ncnc2nc[nH]c12)c1cc2cccc(Cl)c2c(=O)n1-c1ccccc1 [duvelisib]
Method in brief: as §1

dasatinib = compound: Cc1nc(Nc2ncc(C(=O)Nc3c(C)cccc3Cl)s2)cc(N2CCN(CCO)CC2)n1 [dasatinib]
Method in brief: as §1

[8] = compound: Cn1cc(-c2ccc3c(c2)CCN3C(=O)Cc2cccc(C(F)(F)F)c2)c2c(N)ncnc21
Method in brief: as §1

Target	log2 fold change (lapatinib)	log2 fold change (crizotinib)	log2 fold change [1]	log2 fold change (gandotinib)	log2 fold change (tozasertib)	log2 fold change (doramapimod)	log2 fold change [2]	log2 fold change (quisinostat)	log2 fold change [3]	log2 fold change [4]	log2 fold change [5]	log2 fold change (pictilisib)	log2 fold change (bafetinib)	log2 fold change (nilotinib)	log2 fold change [6]	log2 fold change [7]	log2 fold change (tipifarnib)	log2 fold change (duvelisib)	log2 fold change (dasatinib)	log2 fold change [8]
MAFF (UniProt Q9ULX9)	inactive: -0.08	inactive: 0.031	inactive: 0.078	inactive: -0.007	inactive: -0.132	inactive: 0.147	inactive: -0.026	inactive: -0.022	inactive: -0.03	inactive: 0.117	inactive: 0.135	–	–	–	–	–	–	–	–	–
MAPK7 (UniProt Q13164)	inactive: -0.145	inactive: 0.246	inactive: -0.083	inactive: 0.161	inactive: -0.029	inactive: 0.01	inactive: -0.099	inactive: -0.156	inactive: -0.044	inactive: 0.028	inactive: 0.011	–	–	–	–	–	–	–	–	–
LYPLA1, A0A087X1K9	inactive: 0.266	inactive: -0.008	inactive: -0.097	inactive: 0.18	inactive: 0.134	inactive: 0.232	inactive: 0.356	inactive: -0.261	inactive: 0.026	inactive: -0.067	–	–	–	–	–	–	–	–	–	–
MACF1 (UniProt E9PLY5)	inactive: -0.137	inactive: -0.015	inactive: -0.3	inactive: 0.042	–	inactive: -0.167	inactive: 0.328	inactive: 0.084	inactive: 0.108	inactive: 0.022	–	inactive: 0.001	inactive: -0.064	inactive: 0.002	inactive: 0.022	inactive: 0.108	inactive: 0.07	–	–	–
MAPT isoform 7 (UniProt P10636)	inactive: 0.018	inactive: 0.043	inactive: 0	inactive: 0.101	–	inactive: 0.024	inactive: 0.011	inactive: 0	inactive: 0.066	inactive: -0.03	–	–	–	–	–	–	–	–	–	–
MAGEA4 (UniProt P43358)	inactive: -0.048	inactive: -0.089	inactive: 0.01	inactive: 0.009	inactive: 0.015	inactive: 0.013	inactive: -0.159	inactive: -0.035	inactive: 0.031	inactive: -0.001	inactive: -0.115	–	–	inactive: 0.056	inactive: -0.085	inactive: 0	inactive: 0.034	inactive: 0.051	inactive: 0.005	inactive: 0
MAPRE2 (UniProt Q15555)	inactive: -0.003	inactive: -0.026	inactive: 0.119	inactive: -0.057	inactive: -0.016	inactive: 0.02	inactive: -0.03	inactive: 0.025	inactive: 0.017	inactive: 0.025	inactive: 0.016	inactive: 0.009	inactive: -0.005	inactive: -0.022	inactive: 0.012	inactive: -0.019	inactive: 0.042	inactive: -0.01	inactive: -0.021	inactive: 0.012
MAST3 (UniProt O60307)	inactive: -0.066	–	–	–	inactive: 0.011	–	–	–	–	inactive: -0.023	inactive: -0.025	–	–	–	–	–	–	inactive: -0.017	inactive: 0.081	inactive: 0.014
MAP4K4 isoform 6 (UniProt O95819)	inactive: -0.002	–	–	–	inactive: 0.102	–	–	–	–	inactive: 0.021	inactive: 0.083	inactive: -0.092	inactive: 0.016	–	–	–	–	inactive: -0.038	inactive: -0.01	inactive: 0.115
MANBAL (UniProt Q9NQG1)	inactive: -0.009	–	inactive: -0.044	inactive: 0.008	inactive: 0.067	–	inactive: 0.062	–	–	inactive: -0.044	inactive: -0.068	inactive: -0.019	inactive: 0.059	–	–	–	–	–	–	–
MAT2A (UniProt P31153)	inactive: -0.021	inactive: -0.017	inactive: 0.001	inactive: -0.032	inactive: 0.025	inactive: 0.049	inactive: 0.008	inactive: -0.011	inactive: -0.002	inactive: 0	inactive: 0.023	inactive: 0.008	inactive: 0.05	inactive: -0.022	inactive: 0.005	inactive: -0.007	inactive: 0.01	inactive: 0.024	inactive: 0.021	inactive: 0.015
MAST2 (UniProt Q6P0Q8)	inactive: 0.012	inactive: -0.004	inactive: -0.171	inactive: -0.07	inactive: 0.148	inactive: -0.034	inactive: -0.092	inactive: -0.024	inactive: 0.047	inactive: -0.005	inactive: -0.036	inactive: 0.161	inactive: -0.289	–	–	–	–	inactive: -0.065	inactive: 0.049	inactive: 0.044
LYL1 (UniProt P12980)	–	inactive: -0.019	inactive: -0.205	inactive: 0.079	–	inactive: -0.104	inactive: 0.129	inactive: -0.101	inactive: 0.076	–	inactive: 0.131	inactive: -0.158	inactive: -0.123	–	–	–	–	–	–	–
MAGEA3 (UniProt P43357)	–	inactive: -0.121	–	–	inactive: -0.231	inactive: -0.016	–	inactive: -0.019	inactive: -0.023	–	–	–	–	–	–	–	–	–	–	–
MAGEA6 (UniProt P43360)	–	inactive: -0.148	–	–	inactive: 0.068	inactive: -0.068	–	inactive: -0.068	inactive: 0.193	–	inactive: -0.107	–	–	–	–	–	–	–	–	–
MAPK12 (UniProt P53778)	–	–	active: 0.868	inactive: -0.15	inactive: 0.248	–	inactive: -0.163	inactive: 0.051	inactive: -0.015	–	inactive: -0.044	inactive: 0.059	inactive: 0	inactive: 0.082	inactive: 0.048	inactive: 0.085	inactive: -0.005	inactive: -0.061	inactive: -0.057	active: 0.375
MAP3K8 (UniProt P41279)	–	–	inactive: -0.131	inactive: 0.13	–	–	inactive: -0.025	–	–	–	–	inactive: -0.23	inactive: -0.115	–	–	–	–	inactive: 0.013	inactive: -0.156	inactive: 0.118
MARF1 (UniProt Q9Y4F3)	–	inactive: -0.021	inactive: 0.035	inactive: -0.1	inactive: -0.032	inactive: -0.004	inactive: 0.095	inactive: -0.053	inactive: 0.088	–	inactive: -0.035	inactive: -0.212	inactive: -0.012	inactive: -0.064	inactive: 0.024	inactive: 0.031	inactive: -0.062	inactive: -0.002	inactive: -0.031	inactive: -0.03
MAGEB10 (UniProt Q96LZ2)	–	–	inactive: 0.233	inactive: 0.009	–	–	inactive: 0.093	–	–	–	–	–	–	–	–	–	–	–	–	–

Four entries from above, set out differently:
Target,log2 fold change (lapatinib),log2 fold change (crizotinib),log2 fold change [1],log2 fold change (gandotinib),log2 fold change (tozasertib),log2 fold change (doramapimod),log2 fold change [2],log2 fold change (quisinostat),log2 fold change [3],log2 fold change [4],log2 fold change [5],log2 fold change (pictilisib),log2 fold change (bafetinib),log2 fold change (nilotinib),log2 fold change [6],log2 fold change [7],log2 fold change (tipifarnib),log2 fold change (duvelisib),log2 fold change (dasatinib),log2 fold change [8]
MAGEA6 (UniProt P43360),–,inactive: -0.148,–,–,inactive: 0.068,inactive: -0.068,–,inactive: -0.068,inactive: 0.193,–,inactive: -0.107,–,–,–,–,–,–,–,–,–
MAPK12 (UniProt P53778),–,–,active: 0.868,inactive: -0.15,inactive: 0.248,–,inactive: -0.163,inactive: 0.051,inactive: -0.015,–,inactive: -0.044,inactive: 0.059,inactive: 0,inactive: 0.082,inactive: 0.048,inactive: 0.085,inactive: -0.005,inactive: -0.061,inactive: -0.057,active: 0.375
MAP3K8 (UniProt P41279),–,–,inactive: -0.131,inactive: 0.13,–,–,inactive: -0.025,–,–,–,–,inactive: -0.23,inactive: -0.115,–,–,–,–,inactive: 0.013,inactive: -0.156,inactive: 0.118
MARF1 (UniProt Q9Y4F3),–,inactive: -0.021,inactive: 0.035,inactive: -0.1,inactive: -0.032,inactive: -0.004,inactive: 0.095,inactive: -0.053,inactive: 0.088,–,inactive: -0.035,inactive: -0.212,inactive: -0.012,inactive: -0.064,inactive: 0.024,inactive: 0.031,inactive: -0.062,inactive: -0.002,inactive: -0.031,inactive: -0.03
